Results are given in words; binding and its absence hold for the method and conditions named. Binding seen in cells or lysates may run through a third protein.
Target: T1, TRMT112 (human (endogenous in U2OS)) (UniProt Q9UI30)
T1 sequence: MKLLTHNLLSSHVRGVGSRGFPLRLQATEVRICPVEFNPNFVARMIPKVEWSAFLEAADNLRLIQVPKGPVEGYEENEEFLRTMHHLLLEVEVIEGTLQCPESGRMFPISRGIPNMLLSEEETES
Test: co-IP; Protein G beads with anti-TRMT112 (sc-398481) in U2OS lysate (mitotic by the results), IP buffer 10 mM Tris pH 7.5, 100 mM KCl, 2 mM MgCl2, 1 mM DTT, 0.5% NP-40, 4 °C overnight; immunoblot with N6AMT1 antibody I (CQA1550)

B1: Aurora kinase A (protein, UniProt O14965 1-403)
chain: MDRSKENCISGPVKATAPVGGPKRVLVTQQFPCQNPLPVNSGQAQRVLCPSNSSQRIPLQAQKLVSSHKPVQNQKQKQLQATSVPHPVSRPLNNTQKSKQPLPSAPENNPEEELASKQKNEESKKRQWALEDFEIGRPLGKGKFGNVYLAREKQSKFILALKVLFKAQLEKAGVEHQLRREVEIQSHLRHPNILRLYGYFHDATRVYLILEYAPLGTVYRELQKLSKFDEQRTATYITELANALSYCHSKRVIHRDIKPENLLLGSAGELKIADFGWSVHAPSSRRTTLCGTLDYLPPEMIEGRMHDEKVDLWSLGVLCYEFLVGKPPFEANTYQETYKRISRVEFTFPDFVTEGARDLISRLLKHNPSQRPMLREVLEHPWITANSSKPSNCQNKESASKQS
For B1, which binding is on record?
Its binding is “no binding”.

— article PMC11130794
